Laboratory results taken from paper PMC3317521.

Protein sequences, listed by entry. Tags and fused reporters are not part of them. Lines headed by an entry give the natural chain unless they say otherwise; changes in a name come on top.
UniProt E5RWX7: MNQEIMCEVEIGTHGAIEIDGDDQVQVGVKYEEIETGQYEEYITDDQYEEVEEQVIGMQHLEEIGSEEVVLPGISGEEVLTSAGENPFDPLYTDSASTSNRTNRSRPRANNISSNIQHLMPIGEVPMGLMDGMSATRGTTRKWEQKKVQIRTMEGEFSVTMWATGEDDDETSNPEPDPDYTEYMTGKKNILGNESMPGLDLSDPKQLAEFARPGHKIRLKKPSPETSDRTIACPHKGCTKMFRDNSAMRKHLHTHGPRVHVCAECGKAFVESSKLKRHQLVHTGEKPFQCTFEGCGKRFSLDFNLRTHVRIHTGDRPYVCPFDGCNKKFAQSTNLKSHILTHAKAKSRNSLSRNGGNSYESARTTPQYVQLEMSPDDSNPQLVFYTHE
UniProt E5RWX5: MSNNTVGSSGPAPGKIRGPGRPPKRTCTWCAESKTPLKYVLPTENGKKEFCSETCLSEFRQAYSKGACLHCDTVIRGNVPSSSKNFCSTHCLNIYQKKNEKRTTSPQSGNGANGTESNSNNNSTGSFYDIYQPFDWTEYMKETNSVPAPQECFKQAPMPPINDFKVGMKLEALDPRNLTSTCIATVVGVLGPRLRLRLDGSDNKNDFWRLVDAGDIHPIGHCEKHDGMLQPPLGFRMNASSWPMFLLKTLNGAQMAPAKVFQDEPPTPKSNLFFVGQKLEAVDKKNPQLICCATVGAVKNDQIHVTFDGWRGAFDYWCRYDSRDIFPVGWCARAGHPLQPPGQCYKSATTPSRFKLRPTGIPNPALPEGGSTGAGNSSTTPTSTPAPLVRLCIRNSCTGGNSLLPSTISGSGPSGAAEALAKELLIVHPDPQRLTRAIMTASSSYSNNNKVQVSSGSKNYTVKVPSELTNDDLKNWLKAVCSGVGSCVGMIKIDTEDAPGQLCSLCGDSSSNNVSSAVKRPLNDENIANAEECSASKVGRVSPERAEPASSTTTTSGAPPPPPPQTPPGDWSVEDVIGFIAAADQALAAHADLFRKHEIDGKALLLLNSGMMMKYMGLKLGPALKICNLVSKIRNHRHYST
UniProt P49867: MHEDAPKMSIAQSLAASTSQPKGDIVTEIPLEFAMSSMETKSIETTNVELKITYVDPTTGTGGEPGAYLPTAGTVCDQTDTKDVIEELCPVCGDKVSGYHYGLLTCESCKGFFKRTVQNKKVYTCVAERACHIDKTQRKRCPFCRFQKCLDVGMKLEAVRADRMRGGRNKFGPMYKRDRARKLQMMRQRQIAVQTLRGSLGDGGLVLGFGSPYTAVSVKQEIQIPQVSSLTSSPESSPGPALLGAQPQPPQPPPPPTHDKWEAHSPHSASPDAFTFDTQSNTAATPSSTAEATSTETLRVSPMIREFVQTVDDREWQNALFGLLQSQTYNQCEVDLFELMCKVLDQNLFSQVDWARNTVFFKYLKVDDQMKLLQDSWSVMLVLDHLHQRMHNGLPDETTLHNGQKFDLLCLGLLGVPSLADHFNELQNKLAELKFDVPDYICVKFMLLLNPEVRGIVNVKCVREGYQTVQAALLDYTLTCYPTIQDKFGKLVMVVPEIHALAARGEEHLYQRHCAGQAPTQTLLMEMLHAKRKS
UniProt E5RWY0: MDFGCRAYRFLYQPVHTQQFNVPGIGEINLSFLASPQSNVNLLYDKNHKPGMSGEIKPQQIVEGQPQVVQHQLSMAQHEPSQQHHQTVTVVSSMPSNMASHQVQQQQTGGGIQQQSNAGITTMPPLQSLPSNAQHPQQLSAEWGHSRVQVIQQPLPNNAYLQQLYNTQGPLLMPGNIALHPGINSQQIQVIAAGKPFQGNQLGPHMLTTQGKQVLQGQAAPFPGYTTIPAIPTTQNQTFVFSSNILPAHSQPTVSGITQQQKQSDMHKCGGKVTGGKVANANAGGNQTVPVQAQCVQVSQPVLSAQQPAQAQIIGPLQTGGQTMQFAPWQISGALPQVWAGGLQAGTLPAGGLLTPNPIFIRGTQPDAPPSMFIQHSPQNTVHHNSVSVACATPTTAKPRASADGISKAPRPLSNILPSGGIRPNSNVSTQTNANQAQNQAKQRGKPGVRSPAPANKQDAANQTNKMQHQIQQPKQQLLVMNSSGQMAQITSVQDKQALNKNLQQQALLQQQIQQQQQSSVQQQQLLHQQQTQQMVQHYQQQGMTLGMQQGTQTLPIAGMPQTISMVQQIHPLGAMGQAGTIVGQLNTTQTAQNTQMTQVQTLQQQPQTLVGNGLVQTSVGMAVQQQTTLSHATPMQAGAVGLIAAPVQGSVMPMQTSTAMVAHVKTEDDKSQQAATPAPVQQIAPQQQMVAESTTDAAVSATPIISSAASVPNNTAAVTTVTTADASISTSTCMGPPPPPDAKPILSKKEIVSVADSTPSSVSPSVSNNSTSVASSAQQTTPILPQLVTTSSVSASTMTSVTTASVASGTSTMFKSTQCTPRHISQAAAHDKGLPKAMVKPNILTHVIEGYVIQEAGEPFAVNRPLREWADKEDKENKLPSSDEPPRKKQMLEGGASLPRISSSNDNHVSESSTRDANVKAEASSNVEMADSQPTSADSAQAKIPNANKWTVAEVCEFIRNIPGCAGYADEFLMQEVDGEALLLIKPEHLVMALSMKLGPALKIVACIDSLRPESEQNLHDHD
UniProt E5RWX6: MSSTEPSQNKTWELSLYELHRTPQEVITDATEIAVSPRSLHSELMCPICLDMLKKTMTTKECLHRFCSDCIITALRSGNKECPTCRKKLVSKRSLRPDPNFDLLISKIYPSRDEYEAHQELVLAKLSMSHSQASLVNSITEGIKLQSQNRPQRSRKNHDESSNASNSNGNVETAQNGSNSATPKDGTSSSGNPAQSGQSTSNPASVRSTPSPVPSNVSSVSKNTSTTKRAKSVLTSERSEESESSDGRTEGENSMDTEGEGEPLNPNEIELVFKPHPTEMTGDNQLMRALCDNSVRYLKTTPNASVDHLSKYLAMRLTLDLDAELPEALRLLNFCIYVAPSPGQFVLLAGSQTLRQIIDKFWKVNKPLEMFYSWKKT
UniProt E5RWX8: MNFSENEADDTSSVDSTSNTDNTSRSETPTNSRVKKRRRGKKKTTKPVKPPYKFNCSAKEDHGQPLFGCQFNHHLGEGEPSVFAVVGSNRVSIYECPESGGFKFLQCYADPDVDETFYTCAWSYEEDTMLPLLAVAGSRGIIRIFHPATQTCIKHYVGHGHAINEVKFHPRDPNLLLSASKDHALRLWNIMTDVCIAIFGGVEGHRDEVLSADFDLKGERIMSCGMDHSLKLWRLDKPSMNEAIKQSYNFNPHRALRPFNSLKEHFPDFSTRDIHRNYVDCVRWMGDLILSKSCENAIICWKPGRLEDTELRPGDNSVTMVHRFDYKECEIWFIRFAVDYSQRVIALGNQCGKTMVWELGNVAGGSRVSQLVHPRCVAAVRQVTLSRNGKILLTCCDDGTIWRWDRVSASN

What was measured:
BmPho (Bombyx mori) = BmPho (Bombyx mori) (UniProt E5RWX7); experiment: co-IP; HA-tagged and Flag-tagged proteins co-expressed in BmN4 cells; lysis in RIPA buffer (50 mM Tris-HCl pH 8.0, 150 mM NaCl, 1% NP-40, 0.5% sodium deoxycholate, 0.1% SDS); IP with anti-HA, elution with HA peptide, blot with anti-Flag
BmScm (Bombyx mori) = BmScm (Bombyx mori) (UniProt E5RWX5); experiment: as above
[1] = target: BmPho (BiFC fusion) (Bombyx mori) (UniProt E5RWX7); experiment: split reporter; BiFC: 100 ng of each plasmid for PcG proteins fused in pnVW or pcCW co-transfected into BmN4 cells; green fluorescence observed 72 h after transfection in fixed cells
[2] = target: BmScm (BiFC fusion) (Bombyx mori) (UniProt E5RWX5); experiment: as above

Row | Substance | binding (BmPho (Bombyx mori)) | binding (BmScm (Bombyx mori)) | binding [1] | binding [2]
1 | Flag-BmFtz-F1 (from UniProt P49867 1-534) | no binding | no binding |  | 
2 | BmPh (from UniProt E5RWY0) | binds | binds |  | 
3 | BmScm (BiFC fusion) (from UniProt E5RWX5) |  |  | binds | 
4 | BmSce (BiFC fusion) (from UniProt E5RWX6) |  |  | binds | binds
5 | BmEsc (BiFC fusion) (from UniProt E5RWX8) |  |  | binds | binds
6 | BmScm (from UniProt E5RWX5) | binds |  |  | 
7 | BmPh (BiFC fusion) (from UniProt E5RWY0) |  |  | binds | binds

No constants are given. Whether binding was seen depends on the method and setting. In cells and extracts the contact can be indirect. Binding calls can cover weak binding; strength is not graded here.
